Assay: Fasting serum IGF-I, IGF-II and leptin and BMI SDS in short SGA children on rhGH therapy
Assay type: in vivo, human
Excerpt: All subjects were born SGA, had marked short stature (height approximately—3 standard deviation score (SDS)) with a height velocity<25th percentile for >1 year prior to starting rhGH therapy. SGA was defined as a birth weight<10th percentile for gestational age. Additional enrolment criteria for inclusion into the study included; no change in Tanner pubertal stage and/or testicular volumes throughout the study period, normal GH response to clonidine stimulation (defined as a GH level≧7 μgm/L), absence of both islet cell antibodies (<10 Juvenile Diabetes Foundation units) and insulin autoantibodies to exclude type 1 prediabetes. Prepubertal subjects were defined as males with a testicular volume<4 ml and girls with tanner stage 1 breast development. Subjects were excluded if; a chromosomal, intrauterine infection or syndromal cause for SGA was identified, a first degree relative had type 2 diabetes mellitus, or medical therapy was taken that was known to influence SI. Subjects were recruited from the Endocrinology Clinics at Starship Children's Hospital. […] Body mass index (BMI) was used as a measure of relative obesity and expressed as BMI SDS.
Plasma glucose concentration was measured using a Hitachi 911 automated random access analyser (Tokyo, Japan) with an interassay coefficient variation of 1.2% (Trinder P. Determination of blood glucose using an oxidase-peroxidase system with a non-carcinogenic chromogen. J Clin Pathol 1995; 22: 158-61). Insulin was determined by Abbotts IMX microparticle enzyme immunoassay with an interassay coefficient of variation of <5%. Plasma IGF-I was measured using an established IGF binding protein blocked radioimmunoassay (Blum et al. Radioimmunoassays for insulin-like growth factors and their binding proteins. Growth Reg. 1994; 4: (Suppl.) 11-19). […] IGF II was then measured by RIA using a highly specific polyclonal antiserum (Blum et al. A specific radioimmunoassay for insulin-like growth factor II. The interference of IGF binding proteins can be blocked by excess IGF-I. Acta Endcrinol (Copenh) 1988; 129:427-435). […]

rhGH: recombinant human growth hormone given to short SGA children
Body mass index SDS (during rhGH treatment, −0.7±0.5 before): −0.7±0.5 | fasting serum leptin (with rhGH treatment, 10.9±5.6 pretreatment, no change): 7.1 ± 3.0 mg/L | fasting serum IGF-II level (with rhGH treatment, 539±52 pretreatment, no change): 566±35 μgm/l

— patent US20050043231A1, “Therapy for growth hormone induced insulin resistance in juveniles with growth disorders” (priority 2001, published 2005)
